Experimental data published in US20200010560A1.
Results are given in words; binding and its absence hold for the method and conditions named. Some binding calls cover weakened binding; strength is not graded here. For part of these data: Tags and fused reporters may be left off the sequences shown. Each block holds one binder with its values, some of them ahead of it.

Columns and labels:
[1] = target: T1, 5T4 on human tumour cells (human) (UniProt Q13641); test: flow cytometry on disaggregated ovarian tumour cells
T1 sequence (looked up): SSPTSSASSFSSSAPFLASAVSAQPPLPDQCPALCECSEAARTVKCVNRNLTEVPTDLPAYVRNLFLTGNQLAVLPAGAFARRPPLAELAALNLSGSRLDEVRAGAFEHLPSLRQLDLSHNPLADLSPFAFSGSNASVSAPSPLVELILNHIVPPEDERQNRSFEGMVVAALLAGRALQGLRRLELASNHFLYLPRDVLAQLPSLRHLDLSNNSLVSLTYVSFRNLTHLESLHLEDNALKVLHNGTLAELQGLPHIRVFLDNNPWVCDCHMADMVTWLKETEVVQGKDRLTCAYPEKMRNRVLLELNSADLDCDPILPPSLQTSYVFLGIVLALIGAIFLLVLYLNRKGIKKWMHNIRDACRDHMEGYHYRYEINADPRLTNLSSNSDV

[2] = target: T1, 5T4 on human tumour cells (human); test: flow cytometry with PE-conjugated H8 on myeloma cell lines
[3] = target: T2, recombinant protein comprising the extracellular domain of 5T4 with a C-terminal enterokinase cleavage sequence, myc epitope and a six histidine tag (human) (UniProt Q13641); test: western blot
T2 sequence (looked up): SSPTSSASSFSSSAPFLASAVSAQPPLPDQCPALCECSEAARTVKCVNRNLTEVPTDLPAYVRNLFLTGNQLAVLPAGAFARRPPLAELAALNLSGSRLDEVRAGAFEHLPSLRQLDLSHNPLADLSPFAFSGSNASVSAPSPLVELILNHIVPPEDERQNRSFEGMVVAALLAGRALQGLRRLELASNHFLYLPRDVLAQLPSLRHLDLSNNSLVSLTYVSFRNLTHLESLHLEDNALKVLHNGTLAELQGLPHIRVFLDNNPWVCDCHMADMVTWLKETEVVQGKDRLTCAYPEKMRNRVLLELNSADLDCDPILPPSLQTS

[4] = target: T2, recombinant protein comprising the extracellular domain of 5T4 with a C-terminal enterokinase cleavage sequence, myc epitope and a six histidine tag (human); test: ELISA on recombinant 5T4 extracellular domain
[5] = target: T2, recombinant protein comprising the extracellular domain of 5T4 with a C-terminal enterokinase cleavage sequence, myc epitope and a six histidine tag (human); test: western blot, reduced and unreduced 5T4 protein

binding [1]: binds | binding [2]: binds
B1: anti-5T4 H8 murine monoclonal antibody (antibody)
scFv: MEVQLQQSGPDLVKPGASVKISCKASGYSFTGYYMHWVKQSHGKSLEWIGRINPNNGVTLYNQKFKDKAILTVDKSSTTAYMELRSLTSEDSAVYYCARSTMITNYVMDYWGQVTSVTVSSGGGGSGGGGTGGGGSSIVMTQTPTFLLVSAGDRVTITCKASQSVSNDVAWYQQKPGQSPTLLISYTSSRYAGVPDRFIGSGYGTDFTFTISTLQAEDLAVYFCQQDYNSPPTFGGGTKLEIKR

binding [3]: binds | binding [4]: binds | binding [5]: binds | binding [1]: binds
B2: 2E4 antibody (anti-5T4 mouse monoclonal antibody) (antibody)
scFv: MEVQLQQSGPELVKPGASVKISCKASGYSFTGYYMHWVKQSHVKSLEWIGRINPYNGATTYNQDFKDKASLTVDKSSSTASMELHSLTSEDSAVYYCALSTMITTAWFAYWGQGTLVTVSPGGGGSGGGGTGGGGSNFVMTQTPKFLLASAGDRVTISCKASQSVSNDVGWYQQKPGQSPKLLIYFASNRYTGVPDRFIGSGYGTDFTFTISTVQAEDLAVYFCQQDYSSPFTFGSGTKLEIK
